From article PMC11281901 come the findings set out here.

For this test, the target named is T1, mitochondrial antiviral signaling protein (MAVS) (mouse (endogenous in RAW264.7)), Q8VCF0.
T1 chain: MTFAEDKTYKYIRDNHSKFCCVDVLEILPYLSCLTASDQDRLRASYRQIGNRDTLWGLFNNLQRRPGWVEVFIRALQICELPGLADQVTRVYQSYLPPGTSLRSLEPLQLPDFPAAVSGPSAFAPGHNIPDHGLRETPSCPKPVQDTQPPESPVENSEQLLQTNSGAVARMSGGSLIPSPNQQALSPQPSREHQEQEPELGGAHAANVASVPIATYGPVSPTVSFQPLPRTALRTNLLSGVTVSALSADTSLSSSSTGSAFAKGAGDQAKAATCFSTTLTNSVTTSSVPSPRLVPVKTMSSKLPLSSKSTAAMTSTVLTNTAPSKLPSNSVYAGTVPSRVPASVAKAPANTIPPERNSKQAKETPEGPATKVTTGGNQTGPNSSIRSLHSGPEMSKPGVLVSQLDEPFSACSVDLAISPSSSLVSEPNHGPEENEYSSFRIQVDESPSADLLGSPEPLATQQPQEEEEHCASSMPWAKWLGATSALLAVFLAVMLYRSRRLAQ
As to the kind of experiment: SDD-AGE; GST-RIG-I(N) incubated with K63-Ub4, then with mitochondria isolated from RAW264.7 cells preincubated with or without lactate (5 mM, 10 mM) or pyruvate; mitochondria extracts on SDD-AGE, immunoblot. Particulars: remark: other sources report otherwise. For orientation: Immunoblotting shows a protein as a band on a membrane.

Results are given in words; binding and its absence hold for the method and conditions named. Some results given as binding are weak or reduced against the parent protein; the word gives no strength.

B1: mitochondrial antiviral signaling protein (MAVS), Q8VCF0 1-503 (protein)
chain: MTFAEDKTYKYIRDNHSKFCCVDVLEILPYLSCLTASDQDRLRASYRQIGNRDTLWGLFNNLQRRPGWVEVFIRALQICELPGLADQVTRVYQSYLPPGTSLRSLEPLQLPDFPAAVSGPSAFAPGHNIPDHGLRETPSCPKPVQDTQPPESPVENSEQLLQTNSGAVARMSGGSLIPSPNQQALSPQPSREHQEQEPELGGAHAANVASVPIATYGPVSPTVSFQPLPRTALRTNLLSGVTVSALSADTSLSSSSTGSAFAKGAGDQAKAATCFSTTLTNSVTTSSVPSPRLVPVKTMSSKLPLSSKSTAAMTSTVLTNTAPSKLPSNSVYAGTVPSRVPASVAKAPANTIPPERNSKQAKETPEGPATKVTTGGNQTGPNSSIRSLHSGPEMSKPGVLVSQLDEPFSACSVDLAISPSSSLVSEPNHGPEENEYSSFRIQVDESPSADLLGSPEPLATQQPQEEEEHCASSMPWAKWLGATSALLAVFLAVMLYRSRRLAQ
In the case of B1, the binding result was “binds”.
